The supplement of paper PMC8728848
The list shows a part of the results.

Key:
Experiment in all cases: glycan array binding signal (z-score within array); higher = stronger binding
Settings in all cases: glycan notation: IUPAC condensed, linker removed
[1] = biological target: GlcNAc(b1-3)Gal(b1-4)GlcNAc(b1-3)Gal(b1-4)GlcNAc(b1-2)Man(a1-3)[GlcNAc(b1-3)Gal(b1-4)GlcNAc(b1-3)Gal(b1-4)GlcNAc(b1-2)Man(a1-6)]Man(b1-4)GlcNAc(b1-4)[Fuc(a1-6)]GlcNAc
How it was run: (§1)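 Negative Z-scores can be read as non-binding. The Z-score is calculated within each array and then averaged across arrays of one protein sequence at different concentrations or buffers and across linkers. Arrays, 3228 in all, were curated from the Consortium for Functional Glycomics database and kept only where the protein sequence was available.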

[2] = biological target: GlcNAc(b1-3)Gal(b1-4)GlcNAc(b1-3)Gal(b1-4)GlcNAc(b1-2)[GlcNAc(b1-3)Gal(b1-4)GlcNAc(b1-3)Gal(b1-4)GlcNAc(b1-6)]Man(a1-6)[GlcNAc(b1-3)Gal(b1-4)GlcNAc(b1-3)Gal(b1-4)GlcNAc(b1-2)Man(a1-3)]Man(b1-4)GlcNAc(b1-4)[Fuc(a1-6)]GlcNAc
How it was run: as §1

[3] = biological target: GlcNAc(b1-3)Gal(b1-4)GlcNAc(b1-3)Gal(b1-4)GlcNAc(b1-3)Gal(b1-4)GlcNAc(b1-2)Man(a1-3)[GlcNAc(b1-3)Gal(b1-4)GlcNAc(b1-3)Gal(b1-4)GlcNAc(b1-3)Gal(b1-4)GlcNAc(b1-2)Man(a1-6)]Man(b1-4)GlcNAc(b1-4)GlcNAc
How it was run: as §1

[4] = biological target: GlcNAc(b1-3)Gal(b1-4)GlcNAc(b1-3)Gal(b1-4)GlcNAc(b1-3)Gal(b1-4)GlcNAc(b1-2)Man(a1-3)[GlcNAc(b1-3)Gal(b1-4)GlcNAc(b1-3)Gal(b1-4)GlcNAc(b1-3)Gal(b1-4)GlcNAc(b1-2)Man(a1-6)]Man(b1-4)GlcNAc(b1-4)[Fuc(a1-6)]GlcNAc
How it was run: as §1

[5] = biological target: GlcNAc(b1-3)Gal(b1-4)GlcNAc(b1-3)Gal(b1-4)GlcNAc(b1-3)Gal(b1-4)GlcNAc(b1-2)[GlcNAc(b1-3)Gal(b1-4)GlcNAc(b1-3)Gal(b1-4)GlcNAc(b1-3)Gal(b1-4)GlcNAc(b1-6)]Man(a1-6)[GlcNAc(b1-3)Gal(b1-4)GlcNAc(b1-3)Gal(b1-4)GlcNAc(b1-3)Gal(b1-4)GlcNAc(b1-2)Man(a1-3)]Man(b1-4)GlcNAc(b1-4)[Fuc(a1-6)]GlcNAc
How it was run: as §1

[6] = biological target: GlcNAc(b1-3)Gal(b1-4)GlcNAc(b1-3)Gal(b1-4)GlcNAc(b1-3)Gal(b1-4)GlcNAc(b1-3)Gal(b1-4)GlcNAc(b1-2)Man(a1-3)[GlcNAc(b1-3)Gal(b1-4)GlcNAc(b1-3)Gal(b1-4)GlcNAc(b1-3)Gal(b1-4)GlcNAc(b1-3)Gal(b1-4)GlcNAc(b1-2)Man(a1-6)]Man(b1-4)GlcNAc(b1-4)GlcNAc
How it was run: as §1

[7] = biological target: GlcNAc(b1-3)Gal(b1-4)GlcNAc(b1-3)Gal(b1-4)GlcNAc(b1-3)Gal(b1-4)GlcNAc(b1-3)Gal(b1-4)GlcNAc(b1-2)Man(a1-3)[GlcNAc(b1-3)Gal(b1-4)GlcNAc(b1-3)Gal(b1-4)GlcNAc(b1-3)Gal(b1-4)GlcNAc(b1-3)Gal(b1-4)GlcNAc(b1-2)Man(a1-6)]Man(b1-4)GlcNAc(b1-4)[Fuc(a1-6)]GlcNAc
How it was run: as §1

[8] = biological target: GlcNAc(b1-3)Gal(b1-4)GlcNAc(b1-3)Gal(b1-4)GlcNAc(b1-3)Gal(b1-4)GlcNAc(b1-3)Gal(b1-4)GlcNAc(b1-2)[GlcNAc(b1-3)Gal(b1-4)GlcNAc(b1-3)Gal(b1-4)GlcNAc(b1-3)Gal(b1-4)GlcNAc(b1-3)Gal(b1-4)GlcNAc(b1-6)]Man(a1-6)[GlcNAc(b1-3)Gal(b1-4)GlcNAc(b1-3)Gal(b1-4)GlcNAc(b1-3)Gal(b1-4)GlcNAc(b1-3)Gal(b1-4)GlcNAc(b1-2)Man(a1-3)]Man(b1-4)GlcNAc(b1-4)[Fuc(a1-6)]GlcNAc
How it was run: as §1

[9] = biological target: GlcNAc(b1-3)Gal(b1-4)GlcNAc(b1-3)Gal(b1-4)GlcNAc(b1-3)GalNAc
How it was run: as §1

[10] = biological target: GlcNAc(b1-3)Gal(b1-4)GlcNAc(b1-3)GalNAc
How it was run: as §1

[11] = biological target: GlcNAc(b1-3)Gal(b1-4)GlcNAc(b1-3)[GlcNAc(b1-3)Gal(b1-4)GlcNAc(b1-3)]GalNAc
How it was run: as §1

[12] = biological target: GlcNAc(b1-3)Gal(b1-4)GlcNAc(b1-6)[Gal(b1-3)]GalNAc
How it was run: as §1

[13] = biological target: GlcNAc(b1-3)Gal(b1-4)GlcNAc(b1-6)[GlcNAc(b1-3)Gal(b1-3)]GalNAc
How it was run: as §1

[14] = biological target: GlcNAc(b1-3)Gal(b1-4)GlcNAc(b1-6)[GlcNAc(b1-3)]Gal(b1-4)GlcNAc
How it was run: as §1

GlcNAc(b1-3)GalNAc = biological target: GlcNAc(b1-3)GalNAc
How it was run: as §1

GlcNAc(b1-3)Man = biological target: GlcNAc(b1-3)Man
How it was run: as §1

[15] = biological target: GlcNAc(b1-3)[GlcNAc(b1-4)][GlcNAc(b1-6)]GlcNAc
How it was run: as §1

[16] = biological target: GlcNAc(b1-3)[GlcNAc(b1-6)]Gal(b1-4)GlcNAc
How it was run: as §1

[17] = biological target: GlcNAc(b1-3)[GlcNAc(b1-6)]GalNAc
How it was run: as §1

[18] = biological target: GlcNAc(b1-4)Gal(b1-4)GlcNAc
How it was run: as §1

GlcNAc(b1-4)GlcNAc = biological target: GlcNAc(b1-4)GlcNAc
How it was run: as §1

[19] = biological target: GlcNAc(b1-4)GlcNAc(b1-4)GlcNAc
How it was run: as §1

[20] = biological target: GlcNAc(b1-4)GlcNAc(b1-4)GlcNAc(b1-4)GlcNAc(b1-4)GlcNAc
How it was run: as §1

B1: EULS2 M3 (Oryza sativa) (protein)
chain: MVYCRANPNYAMTARNGAVVLAPANPKDEYQHWIKDMRWSTSIKDEEGYPAFALVNKATGQAIKHSLGQSHPVRLVPYNPEVMDESVLWTESRDVGNGFRCIRMVNNIYLNFDAFHGDKYHGGVRDGTDIVLWKLCEGDSLRWKIQPYYILEQKLISEEDLNSAVDHHHHHH
glycan array binding signal (z-score) [1]: -0.12 | glycan array binding signal (z-score) [2]: 0.584 | glycan array binding signal (z-score) [3]: -0.02 | glycan array binding signal (z-score) [4]: 0.151 | glycan array binding signal (z-score) [5]: 0.306 | glycan array binding signal (z-score) [6]: 0.326 | glycan array binding signal (z-score) [7]: 0.453 | glycan array binding signal (z-score) [8]: -0.05 | glycan array binding signal (z-score) [9]: -0.182 | glycan array binding signal (z-score) [10]: -0.378 | glycan array binding signal (z-score) [11]: -0.074 | glycan array binding signal (z-score) [12]: -0.254 | glycan array binding signal (z-score) [13]: -0.435 | glycan array binding signal (z-score) [14]: -0.011 | glycan array binding signal (z-score) (GlcNAc(b1-3)GalNAc): -0.577 | glycan array binding signal (z-score) (GlcNAc(b1-3)Man): 0.383 | glycan array binding signal (z-score) [15]: -0.039 | glycan array binding signal (z-score) [16]: 0.163 | glycan array binding signal (z-score) [17]: 0.487 | glycan array binding signal (z-score) [18]: -0.079 | glycan array binding signal (z-score) (GlcNAc(b1-4)GlcNAc): -0.142 | glycan array binding signal (z-score) [19]: -0.413 | glycan array binding signal (z-score) [20]: 0.11
